Measured values from paper PMC6345044.
Results are given in words; binding and its absence hold for the method and conditions named. Binding seen in cells or lysates may run through a third protein. Some entries that bind do so weakly or less than the wild type.

Protein sequences, listed by entry. Tags and fused reporters are not part of them. Residues count along the entry.
UniProt Q15118, residues 29-436: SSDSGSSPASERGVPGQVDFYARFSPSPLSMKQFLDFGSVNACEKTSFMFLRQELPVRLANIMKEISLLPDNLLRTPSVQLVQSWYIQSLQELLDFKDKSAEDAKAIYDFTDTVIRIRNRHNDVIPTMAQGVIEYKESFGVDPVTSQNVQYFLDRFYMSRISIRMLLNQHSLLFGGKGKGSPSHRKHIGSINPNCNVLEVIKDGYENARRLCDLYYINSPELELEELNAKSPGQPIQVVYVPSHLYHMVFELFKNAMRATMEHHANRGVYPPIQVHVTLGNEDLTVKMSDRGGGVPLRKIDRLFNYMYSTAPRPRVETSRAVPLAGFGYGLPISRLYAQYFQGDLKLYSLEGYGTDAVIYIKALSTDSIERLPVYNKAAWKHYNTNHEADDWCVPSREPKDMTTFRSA

Target: T1, pyruvate dehydrogenase E1α (human (endogenous in MCF-7)) (UniProt P08559)
T1 sequence: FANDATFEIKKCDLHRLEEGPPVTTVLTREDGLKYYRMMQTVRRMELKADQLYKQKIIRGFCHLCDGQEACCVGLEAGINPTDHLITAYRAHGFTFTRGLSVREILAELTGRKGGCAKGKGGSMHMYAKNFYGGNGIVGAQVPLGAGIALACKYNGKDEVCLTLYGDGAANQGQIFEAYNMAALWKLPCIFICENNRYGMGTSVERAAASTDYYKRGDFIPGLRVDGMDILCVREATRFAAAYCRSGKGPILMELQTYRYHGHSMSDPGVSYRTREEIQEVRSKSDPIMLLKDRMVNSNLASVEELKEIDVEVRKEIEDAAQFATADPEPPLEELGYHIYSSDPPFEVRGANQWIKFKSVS
Assay: co-IP; endogenous PDH E1α immunoprecipitated from lysates of control and TPD54 stably knocked down MCF-7 cells (2 ug PDH E1α antibody overnight at 4 °C, protein A agarose); immunoblot for PDK1

With “pyruvate dehydrogenase kinase 1 (from UniProt Q15118 29-436) (enzyme)” the binding was “binds”.
